Hit rate of the full screen: of about 310,000 compounds, about 17,000 (5.5%) were called active. The inconclusive results got no clear call from the source; some entries with a clear call stand among them for comparison. The call rests on the fitted dose curve; in most records, active means well fitted inhibition curve with a large enough effect; inconclusive means small, poorly fitted or top-dose-only effect, or effect the other way; inactive means no such curve, though single readings can be large or run the other way. Where the call is inconclusive, the potency comes from a doubtful curve fit.
Biological target: Nuclear receptor ROR-gamma (Mus musculus) (UniProt P51450)
Assay: qHTS for inhibitors of ROR gamma transcriptional activity; further: nearly all actives have a fitted effect of over 60% in size
Conditions: Drosophila S2 Gal4-RORgamma UAS-luciferase reporter, 20 h; activity change, negative = inhibition: at 53.6 µM (top of the series)
Method in brief: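 In this cell-based reporter format, copper sulfate (700 uM final) drives Gal4–ROR gamma fusion expression from a metallothionein promoter in Drosophila Schneider cells; compounds preincubated 1 hr, reporter read after 20 hr at ambient temperature.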
On the % scale 0 is the no-effect control and ±100 the full control effect; potency means the concentration at half of the fitted maximal effect.

Sequences of proteins named here, by UniProt entry; tags and fusion partners are left off. A change or cut given only in a name is not applied to a line headed by its entry.
UniProt P51450: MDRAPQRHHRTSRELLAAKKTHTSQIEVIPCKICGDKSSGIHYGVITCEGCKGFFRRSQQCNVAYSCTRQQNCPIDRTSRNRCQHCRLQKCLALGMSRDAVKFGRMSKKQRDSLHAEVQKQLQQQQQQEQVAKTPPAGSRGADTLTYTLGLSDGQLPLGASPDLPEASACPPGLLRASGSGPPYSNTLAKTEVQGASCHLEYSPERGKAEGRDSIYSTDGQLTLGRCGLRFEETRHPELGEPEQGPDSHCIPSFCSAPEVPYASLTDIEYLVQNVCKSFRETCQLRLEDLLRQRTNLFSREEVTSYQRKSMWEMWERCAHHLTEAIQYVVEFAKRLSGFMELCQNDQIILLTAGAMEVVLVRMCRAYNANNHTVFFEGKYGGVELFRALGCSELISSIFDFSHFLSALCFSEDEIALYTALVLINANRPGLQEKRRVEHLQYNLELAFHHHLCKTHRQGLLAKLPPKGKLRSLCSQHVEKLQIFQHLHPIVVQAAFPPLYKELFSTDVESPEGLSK

| SMILES | Potency | activity change, negative = inhibition |
| --- | --- | --- |
| C=CCSc1n[nH]c(-c2ccc(OCCC)cc2)n1 | active: 10 µM |  |
| Cc1cc(C)n2nc(-c3cccnc3)nc2n1 | inactive |  |
| COc1ccc(OC)c(NC(=O)c2sc3nc(C)cc(C)c3c2N)c1 | inconclusive: 2 µM [activator, full curve] |  |
| COc1cc(NC(=O)N2c3ccccc3Sc3ccccc32)c(C(=O)O)cc1OC | inactive |  |
| COc1ccc(C2N3CC4(C)CN2CC(C)(C3)C4O)cc1OC (stereo unspecified) | inconclusive: 12.6 µM [inhibitor, partial curve, poor fit] |  |
| Cc1nn(-c2nc3ccccc3s2)c(C)c1Oc1ccccc1O | inconclusive: 11.2 µM [activator, partial curve] |  |
| O=C(Nc1ncc(Cc2ccccc2Cl)s1)c1ccc(-c2cccc([N+](=O)[O-])c2)o1 | active: 5.01 µM |  |
| CC(=O)N1N=C(c2ccccc2OC(=O)/C=C/c2ccccc2)CC1c1ccccc1 (stereo unspecified) | inactive |  |
| Cc1cc(Cl)ccc1OC(C)C(=O)Nc1ccc(C(=O)Nc2ccccc2C(=O)O)cc1 (stereo unspecified) | inconclusive: 15.8 µM [activator, single point] |  |
| CN(C)n1cccc1/C=C(\C#N)S(=O)(=O)c1ccc(Cl)cc1 | inconclusive: 22.4 µM [activator, single point] |  |
| O=[N+]([O-])c1cccnc1NCCc1c[nH]c2ccccc12 | inconclusive: 3.16 µM [activator, single point] |  |
| COc1ccc(/C=N/NC(=O)c2ccccc2O)cc1CSc1ccccn1 | active: 15.8 µM |  |
| O=C(Nc1nnc(SCc2ccc(F)cc2)s1)c1ccco1 | inconclusive: 6.31 µM [activator, single point] |  |
| O=C(Nc1nc2c(s1)CCCC2)c1ccc(Br)o1 | inconclusive: 12.6 µM [inhibitor, single point] |  |
| CCCNC(=O)C12CCC(C)(c3nc4cc(C)c(C)cc4nc31)C2(C)C (stereo unspecified) | inactive |  |
| COc1cccc(NC(=O)c2ccc3c(c2)N(C)CCS3)c1 | inactive |  |
| CCOC(=O)c1ccc(NS(=O)(=O)c2cccc3nsnc23)cc1 | inconclusive: 0.178 µM [activator, full curve, poor fit] |  |
| Cc1cc(C)c(S(=O)(=O)N2CCN(C(=O)CN3C(=O)NC4(CCCC4)C3=O)CC2)c(C)c1 | inactive |  |
| Cc1cc(Nc2ccccc2)nc(N2CCOCC2)n1 | inconclusive: 17.8 µM [activator, single point] |  |
| CO[C@H]1COC(=O)C/C=C\[C@@H](C)COC(=O)[C@@H](OCc2ccccc2)/C=C\[C@@H]1C |  | inactive: -16.2% [at 10 µM] |
| N#CC1=C(N)Oc2cc(O)ccc2C1c1ccc(Br)s1 (stereo unspecified) | inconclusive: 0.794 µM [inhibitor, single point] |  |
| COc1cc(NC(=O)c2cnc(N)o2)cc(C(=O)Nc2cccc(C(F)(F)F)c2)c1 | inconclusive: 31.6 µM [inhibitor, single point] |  |
| Cc1c(O)c2c3c(cccc3c1O)C(=O)N(c1ccccc1)C2=O | inconclusive: 20 µM [activator, single point] |  |
| Oc1c(Br)cc(Br)cc1C=Nc1ccc2c(c1)OCCO2 | inconclusive: 20 µM [inhibitor, single point] |  |

Some values from above:
Value for O=C(Nc1ncc(Cc2ccccc2Cl)s1)c1ccc(-c2cccc([N+](=O)[O-])c2)o1 under Potency: active: 5.01 µM
Value for Cc1c(O)c2c3c(cccc3c1O)C(=O)N(c1ccccc1)C2=O under Potency: inconclusive: 20 µM [activator, single point]

(continued)

| SMILES | Potency | activity change, negative = inhibition |
| --- | --- | --- |
| Cc1ccc(Cn2nnc3c(=O)[nH]c(C4CCCN(C(=O)c5ccco5)C4)nc32)cc1 (stereo unspecified) | inconclusive: 10 µM [activator, partial curve] |  |
| Cc1ccc(N2C(=O)C(Cl)=C(N3CCCCCC3)C2=O)cc1 | inconclusive: 17.8 µM [activator, partial curve, poor fit] |  |
| CCC(C)(C)NC(=O)C(c1ccc(F)cc1)N(Cc1ccco1)C(=O)c1snc(C(N)=O)c1N (stereo unspecified) | inactive |  |
| O=C(NCCc1ccccc1)/C(=C\c1cccc([N+](=O)[O-])c1)NC(=O)c1ccco1 | inconclusive: 22.4 µM [activator, single point] |  |
| Nc1nc(Nc2ccccc2F)nc(NCCO)c1[N+](=O)[O-] | inactive |  |
| Cc1cc(C)cc(N(CC(=O)NCc2ccco2)S(=O)(=O)c2ccccc2)c1 | inactive |  |
| O=C(NCCCSc1ccccc1)c1ccc(=O)[nH]c1 | inactive |  |
| CCOc1cc(S(=O)(=O)Nc2ccc(Cl)cn2)ccc1F | inconclusive: 22.4 µM [inhibitor, single point] |  |
| COc1ccc(C(C2C(=O)CC(C)(C)CC2=O)C2C(=O)CC(C)(C)CC2=O)cc1COCC(F)(F)F | inconclusive: 14.1 µM [activator, partial curve] |  |
| CC(C)(C)c1ccc(OCC(=O)N/N=C/c2cc(Br)ccc2OC(=O)c2ccco2)cc1 | active: 0.251 µM |  |
| CC1=CC2=NC(=O)/C(=C\c3cccn3CCOc3cccc(C)c3)C(=N)N2O1 | active: 15.8 µM |  |
| Cc1c(C(=O)NCc2ccoc2)oc2ccc3c(c12)C(=O)CC(C)(C)O3 | inconclusive: 31.6 µM [inhibitor, single point] |  |
| O=S(=O)(c1ccccc1)N1CCC[C@@]2(CCN(Cc3cc(C(F)(F)F)cc(C(F)(F)F)c3)C2)C1 | inactive |  |
| C1CCN(c2nc(N3CCCCC3)nc(N3CCNCC3)n2)CC1 | inactive |  |
| CSc1nc(C(=O)N2CCCC(Nc3ccc(C)c(C)c3)C2)cs1 (stereo unspecified) | inconclusive: 15.8 µM [activator, single point] |  |
| Cc1ccccc1SCC(=O)N1CCN(c2ccc(C(F)(F)F)cn2)CC1 | inconclusive: 35.5 µM [activator, single point] |  |
| Cn1nnc(NC(=S)NC(=O)c2cccc3c(Cl)cccc23)n1 | active: 0.891 µM |  |
| CCOC(=O)C1=C(N)c2ccccc2CC1C1CCCC1 (stereo unspecified) | inactive |  |
| Cc1ccc(CN(Cc2ccccc2)C(=S)NCC(=O)NCc2cccnc2)o1 | inactive |  |
| COc1ccc(CC(=O)Nc2ccc(S(=O)(=O)Nc3onc(C)c3C)cc2)cc1OC | inconclusive: 12.6 µM [inhibitor, single point] |  |
| Cc1cccc(Nc2nc3ccccc3s2)c1C | inconclusive: 11.2 µM [inhibitor, single point] |  |
| COc1cc(NC(=O)c2ccccc2)c(OC)cc1NC(=O)CSc1[nH]c(=O)cc(C)c1C#N | inconclusive: 0.501 µM [activator, full curve] |  |
| CCN(CC)CCC(c1cc(OC)c(OC)c(OC)c1)c1c(OC)cc(OC)c2c(-c3ccccc3)cc(=O)oc12 (stereo unspecified) | inconclusive: 35.5 µM [inhibitor, single point] |  |
| Cc1ccccc1CSc1nnc(NC(=O)C2COc3ccccc3O2)s1 (stereo unspecified) | inconclusive: 12.6 µM [inhibitor, single point] |  |

| SMILES | Potency | activity change, negative = inhibition |
| --- | --- | --- |
| C(#Cc1ccccc1)C[N+]1(CC#Cc2ccccc2)CCCC1 | inconclusive: 25.1 µM [activator, single point] |  |
| Cc1ccc2c(c1)C1CN(C)CCC1N2C(=S)NC(=O)c1ccc(Cl)cc1Cl (stereo unspecified) | active: 0.282 µM |  |
| Cc1cnc(C(=O)Nc2cccc3ncccc23)cn1 | inactive |  |
| Cc1cc(C)cc(-n2c(C)cc(/C=N/NC(=O)c3cccc([N+](=O)[O-])c3C)c2C)c1 | active: 2.82 µM |  |
| Cc1csc(NC(=O)CSc2ncnc3c2cnn3-c2ccccc2Cl)n1 | inconclusive: 20 µM [activator, single point] |  |
| CC(OCC(O)CN1CCCCC1CCO)c1ccc(Cl)cc1 (stereo unspecified) | inconclusive: 0.501 µM [activator, single point] |  |
| O=C(CN1C(=O)CCC1=O)Nc1nc(-c2nc3ccccc3s2)cs1 | inconclusive: 5.01 µM [activator, single point] |  |
| CC(NC(=S)N1CCN(c2ccccc2)CC1)c1ccccc1 (stereo unspecified) | inconclusive: 35.5 µM [inhibitor, single point] |  |
| CC(C)CNS(=O)(=O)c1cc2c3c(c1)CCC(=O)N3CCC2 | inconclusive: 17.8 µM [inhibitor, single point] |  |
| O=C(NCc1ccco1)C(=O)NCC1OCCN1S(=O)(=O)c1ccc(Cl)cc1 (stereo unspecified) | inconclusive: 12.6 µM [activator, single point] |  |
| CCS(=O)(=O)N1CCC(c2nc(-c3ccc(C)cc3)no2)CC1 | inconclusive: 14.1 µM [activator, partial curve] |  |
| O=c1cc(CSc2ccccc2)[nH]c2ccccc12 | inconclusive: 12.6 µM [activator, partial curve, poor fit] |  |
| COC(=O)C(=Cc1ccc(OCc2ccc([N+](=O)[O-])cc2)c(OC)c1)C(=O)OC | active: 15.8 µM |  |
| COc1ccccc1NC(=O)Cn1cnc2sc(C(=O)Nc3ccc(OC)c(OC)c3)c(C)c2c1=O | inconclusive: 15.8 µM [inhibitor, single point] |  |
| CCN(CC)S(=O)(=O)c1ccc2c(c1)nc(-c1ccccn1)n2C | inactive |  |
| COc1ccccc1NS(=O)(=O)c1cccc(C(=O)NNC(=O)C(NC(N)=O)C(C)C)c1 (stereo unspecified) | inactive |  |
| Cn1c(=O)c2c(nc(N/N=C/c3cccnc3)n2Cc2ccccc2)n(C)c1=O | inactive |  |
| CCOc1cc(C(=O)NCCN2CCOCC2)cc(OCC)c1OCC | inconclusive: 6.31 µM [activator, single point] |  |
| Cc1csc(NC(=O)CSc2nnc(Cc3cccn3C)n2-c2ccc(F)cc2)n1 | inconclusive: 15.8 µM [inhibitor, single point] |  |
| CS(=O)(=O)Nc1ccc(C2=NN(S(=O)(=O)c3ccc(F)cc3)C(c3ccco3)C2)cc1 (stereo unspecified) | inconclusive: 3.55 µM [activator, single point] |  |
| COCCCn1c(=O)c2sccc2n2c(CCCC(=O)NCc3ccccc3)nnc12 | inactive |  |
| COc1ccccc1NC(C)C(=O)N/N=C/c1ccccc1OCc1cccc(Br)c1 (stereo unspecified) | inactive |  |
| COc1ccc(C(=O)NC(=S)Nc2ccc(CN3CCOCC3)cc2)cc1OC | inconclusive: 17.8 µM [inhibitor, single point] |  |

— PubChem BioAssay AID2551 (National Center for Advancing Translational Sciences (NCATS), 2010)
